Measurements taken from the supplement of paper PMC3334620.
Over roughly 33,000 sequences, “E-score (-0.5 to 0.5)” has its median near -0.0059; the highest 2% begin near 0.26. The list shows a part of the results.

molecular target: T1, Cin5 (UniProt P40917); experiment: PBM E-score (8-mer binding enrichment) (E-score (-0.5 to 0.5)); higher = stronger / more preferred TF binding; settings: protein concentration: 100 nM; construct: GST-full length
T1 sequence: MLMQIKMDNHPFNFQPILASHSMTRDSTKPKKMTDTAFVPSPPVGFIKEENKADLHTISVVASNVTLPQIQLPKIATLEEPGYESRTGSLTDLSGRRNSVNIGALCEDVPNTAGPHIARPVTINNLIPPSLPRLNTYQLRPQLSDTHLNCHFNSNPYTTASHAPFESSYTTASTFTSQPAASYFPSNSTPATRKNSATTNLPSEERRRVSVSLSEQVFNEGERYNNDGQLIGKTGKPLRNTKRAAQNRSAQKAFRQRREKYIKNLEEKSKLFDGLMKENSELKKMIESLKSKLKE
Summary of the method: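 E-scores (a modified Wilcoxon-Mann-Whitney statistic) were assigned by the Universal PBM Analysis Suite to every ungapped eight-base word pooled with its reverse complement. The input came from universal all-10-mer Agilent arrays made double-stranded by primer extension and probed with GST-tagged yeast transcription factors at about 100-200 nM. Fluorescent anti-GST detected bound protein, and masliner normalised the scans.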

Sequence	PBM E-score
AACCGGAT	0.207
ATGTTCCG	0.115
GATCATCC	-0.0259
CCCGCACC	-0.0467
ACAATTAG	-0.0153
AGTGACGA	-0.0175
AGAGACAT	0.0523
CACGTCCG	-0.149
AGAGTTTA	0.11
GGGGTTAA	-0.0418
CGGACGGA	-0.116
ACCAATCC	0.135
CCTTGAAC	-0.108
GACACTGA	0.0297
AAACTGGT	0.0256
GTAGCACA	-0.0233
GAGTGTAC	-0.109
CTCAAATA	0.0684
GGTAAGAC	-0.0686
AGCTGGAT	0.0213
CTTATACA	0.0656
CTGATTTA	0.0451
ACAAGGCC	-0.172
ATCATGGG	-0.0805
AGCGTACA	-0.0781

Reformatted with bars between the fields: entries from further up.
Sequence | PBM E-score
AGAGTTTA | 0.11
GGGGTTAA | -0.0418
CGGACGGA | -0.116

The results go on:

Sequence	PBM E-score
CCCCCGAG	-0.288
AGGCCCGG	-0.367
AGAAGTTA	0.0742
CACAAGCA	-0.045
GGGCAACA	0.0928
ATTCAAGG	-0.127
AACTGAGA	0.047
GATGATAA	0.184
CCCAATCG	0.0686
ACCAGCGT	-0.157
ATACTAGG	0.105
AAAAGGTG	-0.0654
AAGGGCCC	-0.124
ATCACGCG	0.137
TAGCACCA	0.0184
GCGAGTCA	-0.164
CGCAACTC	0.103
AGGTTAGG	0.0566
AACAAAAA	0.209
ACCCAGGT	-0.31
GAACGCAA	0.0513
ACGGAAAT	0.305
CTTGCGAA	0.159
ACTGCGTC	-0.141
ACTCGTTC	-0.11

Sequence	PBM E-score
ATCGTCGG	-0.11
CTTGCATC	-0.012
ATGCCGCC	-0.079
CTAATAAC	0.133
AGTATAGG	-0.0146
CATGCAAC	0.152
AAAAGACC	-0.124
CCAGCGAC	-0.209
ACTCTTTA	-0.147
AATGCGTA	0.0514
GTGCGTGA	-0.00123
AGCGACTA	0.0063
CTCGCGCC	0.0349
CAAGGCTA	-0.0546
ACATCCTA	0.112
ATCCGGGC	-0.0665
AATCCCCG	0.00103
GTTCGATA	0.181
TAAGTCGA	0.0638
AGGCCCCC	-0.445
ACGTGAGA	-0.0704
CTGGATAA	-0.0469
ACTTATGA	0.139
GCTTTTTA	0.0638
ACCTTGGA	-0.0833

Part of the list above, in markdown.

| Sequence | PBM E-score |
| --- | --- |
| CCCGCACC | -0.0467 |
| ATCACGCG | 0.137 |
| CTAATAAC | 0.133 |

Further records.

Sequence	PBM E-score
AGAGAGTG	-0.0886
AAAGGTCC	-0.216
CTAGTGTC	-0.0545
GTTCTCGA	-0.0139
AGGACGTG	-0.114
AATTAATT	0.0929
AGTTCTAA	-0.0624
ACCACGCA	-0.0742
CATACGCC	-0.0108
AGTGACTC	-0.11
GAGTTGGC	-0.0875
AGTAAGGC	0.0535
CCGGAAGA	-0.00221
AACCGACG	0.167
AAACCATC	0.0979
CCCCAATA	-0.028
CGTTGATA	0.112
GGGCCAAA	-0.1
ATTCAATC	0.193
GTTCCAGA	-0.0248
GCAGCAGC	-0.14
ACGACGCG	-0.0135
ACGTACAG	-0.0203
CACTGTGG	-0.0807
TAGACTAA	-0.0981

Sequence	PBM E-score
AGGAGATG	-0.0452
GCACATCA	0.142
GAAGGTCC	-0.111
GGTCAATA	0.169
ATGGTTCG	0.0872
CGATGGGA	0.0109
CCAGGGAA	-0.16
GTGTCACA	0.0459
TGGGTTAA	-0.12
ACGTTACC	-0.00667
ACACCTGG	-0.205
ATTTGCCA	-0.152
AGATAACT	0.159
GCGGATCA	-0.00769
TCTCACCA	-0.0168
CATATGCC	0.0685
GGTGCGTA	-0.205
AAAATTTG	0.0318
AGCGCTCC	-0.134
GGAGCACA	0.0111
ATGGTGTA	0.125
CCACAGCA	-0.0249
CATCTTGC	0.0581
ACCGCAAT	0.12
AACACGCG	-0.113

Sequence	PBM E-score
AGCGTAAA	0.122
CAAAAATC	0.0297
ATGCTAAA	0.0838
GTAACCGA	0.0434
ATGAAGTG	0.19
CTGAGAGA	-0.266
ATCAGTGC	0.0756
AAGCTATC	0.0613
AAAAGCGT	-0.0115
CAGGAACG	-0.0351
ATGTACGA	0.192
GTAATTCA	0.142
GCCATGAC	-0.209
ACGGGTAG	-0.187
CGACAGGC	-0.186
ACCTCCAG	-0.181
AAAGTGCC	-0.174
CATTGTTC	0.121
GCTATTGA	0.00377
AATAGCCG	-0.0749
ACTTCATA	0.169
CACGGATA	0.22
ACAGTGCA	0.102
ACACATAT	0.103
CACTAAGG	-0.124

Sequence	PBM E-score
CTGAGGTA	0.168
GCGTGATA	0.0149
CAATGACC	-0.172
GCGTGTTA	-0.0317
CCACTTTA	0.159
CCCTAACG	-0.164
CCAAATTA	0.187
AAACCGAA	0.0262
GTTGCTTA	0.338
CGAGTTTA	0.0867
AACTTTGC	0.064
AACATCCG	0.0506
TCAGCTGA	0.253
ACCATCCG	0.00451
ACTTTGCG	0.0978
ATGAGCAG	-0.0478
ATGCCGGG	-0.199
CCTACACA	0.0287
ACCCATCG	0.0212
AATTATAC	0.208
AAAAGAGA	0.0667
ACGGTAGA	-0.117
